Laboratory results published in paper PMC9018197.

Sequences of proteins named here, by UniProt entry; tags and fusion partners are left off.
UniProt P15927: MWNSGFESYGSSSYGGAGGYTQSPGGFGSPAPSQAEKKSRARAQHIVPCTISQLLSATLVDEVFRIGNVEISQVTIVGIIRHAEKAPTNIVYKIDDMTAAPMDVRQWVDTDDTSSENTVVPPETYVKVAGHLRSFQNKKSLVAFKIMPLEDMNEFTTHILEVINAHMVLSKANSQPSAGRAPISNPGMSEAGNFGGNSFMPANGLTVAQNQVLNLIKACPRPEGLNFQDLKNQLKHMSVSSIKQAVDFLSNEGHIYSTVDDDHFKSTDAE

B1: tissue inhibitor of metalloproteinase (TIMP) 3 (protein, UniProt P35625 24-211)
chain: CTCSPSHPQDAFCNSDIVIRAKVVGKKLVKEGPFGTLVYTIKQMKMYRGFTKMPHVQYIHTEASESLCGLKLEVNKYQYLLTGRVYDGKMYTGLCNFVERWDQLTLSQRKGLNYRYHLGCNCKIKSCYYLPCFVTSKNECLWTDMLSNFGYPGYQSKHYACIRQKGGYCSWYRGWAPPDKSIINATDP

Molecular target: Beclin1 (human (endogenous in HaCaT)) (UniProt Q14457)
Experiment: affinity purification with mass spectrometry; HaCaT lysate precipitated with anti-Beclin1 antibody, eluted at pH 2.0; label-free quantitative proteomics and parallel reaction monitoring (PRM); cells with or without 100 mM trehalose for 24 hours

Molecule	binding
RPA32 (RPA2) (from UniProt P15927 1-270)	binds
B1	binds

No constants are given. Whether binding was seen depends on the method and setting. Binding seen in cells or lysates may run through a third protein. A yes stands for co-enrichment or nearness to the bait. Other partners may have been found.
